# In PubChem BioAssay AID2417 (National Center for Advancing Translational Sciences (NCATS), 2010):
# The campaign covered roughly 140,000 compounds. About 4,300 (3.1%) were called active. Inconclusive means that the source gave no clear call. Such entries were picked first, then a sample of the others.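 The calls were made as follows: active = readout at or below -70, meaning at least 70% loss of cells showing the perinucleolar compartment, a nuclear body marking cancer cells; inconclusive = readout between -30 and a set limit; inactive = the rest.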
# Assay: High Content Assay for Compounds that inhibit the Assembly of the Perinucleolar Compartment;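 also: plate controls were DMSO wells for no effect and camptothecin positive control wells for full effect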
# Conditions: PC3M PTB-GFP, PNC prevalence imaging, 16 h; at 10 µM; stronger effect = lower value
# Summary of the method: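 Read-out is percentage of cells bearing a perinucleolar compartment, from automated 20x imaging of fixed, Hoechst-stained PC3M PTB-GFP cells. Cells were seeded 4 h, then exposed 16 h to compound (23 nl of library stock) in duplicate plates.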
row,SMILES,"activity change (PNC), negative = inhibition"
1,O=C(NCc1ccco1)C(c1ccccc1F)N(CC1CCCO1)C(=O)Cn1nnc2ccccc21 (stereo not drawn),inconclusive: -42.2%
2,O=C(/C=C/c1ccccc1Cl)N(Cc1ccc(Cl)cc1)C1CCS(=O)(=O)C1 (stereo not drawn),active: -98.2%
3,COc1ccc(-n2c(=S)[nH]c3cc(C(=O)Nc4ccc(OC)c(OC)c4)ccc3c2=O)cc1,inactive: 17.1%
4,Cn1c(=O)c2c(nc(N3CCN(c4ccccn4)CC3)n2Cc2ccccc2Cl)n(C)c1=O,inactive: 83.3%
5,O=CNCCCc1nc2ccccc2n1Cc1ccccc1,inconclusive: -61.3%
6,CCCCN1CN(Cc2ccccc2)CNC1=S,inconclusive: -65.2%
7,Cc1ccc(S(=O)(=O)NNC(=O)CCC(=O)Nc2ccc(C)cc2C)cc1,inconclusive: -41.6%
8,COc1ccc2c(c1)S/C(=C\C(=O)c1ccncc1)N2C,inactive: -12.3%
9,Cc1ccccc1C=Nc1ccccc1C(N)=O,active: -86%
10,CN(CCC#N)C(=O)COC(=O)c1ccc(CNS(=O)(=O)c2ccc(F)c(Cl)c2)cc1,inconclusive: -45%
11,O=C(O)CNC(=O)/C(=C/c1cccc([N+](=O)[O-])c1)NC(=O)c1ccco1,inconclusive: -38.7%
12,CCOc1cc2[nH]c(=S)n(CCCCC(=O)NCc3ccco3)c(=O)c2cc1OCC,inconclusive: -44.9%
13,CCCOc1ccc(NC(=O)CC2C(=O)N(CC)C(=S)N2CCNC(C)=O)cc1 (stereo not drawn),active: -113%
14,Cc1c(Cl)cccc1N1C(=O)c2ccccc2C1=O,inconclusive: -40.1%
15,N=c1c2c(-c3ccccc3)c(-c3ccccc3)oc2ncn1CCN1CCOCC1,inconclusive: -76.9%
16,Cc1cc(C)n(/N=C/c2cccs2)c(=O)c1C#N,active: -98%
17,COc1cccc(C2CC(c3ccccc3OC)n3ncnc3N2)c1 (stereo not drawn),inactive: 3.3%
18,CC(C)Oc1cccc(-c2cc(C(=O)N3CCN(S(C)(=O)=O)CC3)c3ccccc3n2)c1,inconclusive: -42.1%
19,C=CCN(C(=O)Nc1ccc2oc(C)nc2c1)c1ccccc1,inconclusive: -40.4%
20,O=C(c1ccco1)N1CCN(C(=O)c2cc(-c3ccccn3)nc3ccc(Cl)cc23)CC1,inactive: 41.4%

row,SMILES,"activity change (PNC), negative = inhibition"
1,C/C(=N\NC(=O)c1c(Cl)cnn1C)c1cccc(NC(=O)C(C)C)c1,inconclusive: -62.7%
2,Cc1ccc(S(=O)(=O)N(C)CC(=O)N2CCOCC2)cc1,inconclusive: -43.3%
3,C[C@H](NC(=O)Cn1cncn1)c1ccccc1,active: -100%
4,Cc1ccc(C(=O)c2ccccc2C(=O)OCC(=O)Nc2ccc(SC(F)F)cc2)cc1,inconclusive: -30%
5,O=C(OCN1C(=O)c2ccccc2C1=O)/C(=C\c1ccco1)NC(=O)c1ccccc1,inactive: 73.8%
6,O=C(NNC(=S)Nc1ccc(Cl)cc1Cl)c1ccncc1,inactive: -1.4%
7,CCCCCn1c(Sc2ccccc2)nc2c1c(=O)[nH]c(=O)n2C,inactive: 21%
8,CCc1nc2scc(-c3ccc(C)cc3)c2c(=O)n1N,inconclusive: -41.8%
9,O=[N+]([O-])c1ccc(Oc2cccc(F)c2)c2ccncc12,inconclusive: -39.1%
10,CCN(CC)C(=O)c1sc(NC(=O)c2ccncc2)c(C(=O)OC)c1C,inconclusive: -64.7%
11,CC(Oc1ccc(Cl)cc1Cl)c1nc(-c2ccc(NC(=O)c3ccco3)cc2)no1 (stereo not drawn),inactive: 43.1%
12,CC(=O)Nc1cc(N=Cc2ccc(O)cc2O)c(Cl)cc1Cl,inconclusive: -66.7%
13,O=C(COc1ccccc1)N1CCN(c2ncnc3c2cnn3-c2ccccc2)CC1,active: -97.1%
14,COc1ccc(CSCCN)cc1Cl,active: -96.3%
15,O=C(Cn1cnc2c(nnn2Cc2ccc(F)cc2)c1=O)N1CCCCC1,inconclusive: -33.7%
16,O=C(/C=C/c1ccccc1)NC1CCS(=O)(=O)C1 (stereo not drawn),inconclusive: -52.4%
17,O=C1C2C(C(=O)N1/N=C/c1cc([N+](=O)[O-])ccc1O)C1C=CC2C12CC2 (stereo not drawn),inactive: 6.84%
18,CCCCC(C(=O)OCC(=O)c1ccc(OC)cc1)N1C(=O)c2ccccc2C1=O (stereo not drawn),active: -100%
19,COc1ccc(Cc2nnc(NC(=O)Cc3cccs3)s2)cc1OC,active: -100%
20,COc1ccc(C2=NN(C(=O)CSc3ncccn3)C(c3ccc(OC)cc3)C2)cc1 (stereo not drawn),inconclusive: -46.2%

# Structural class: those above with a nitro group on carbon
row,SMILES,"activity change (PNC), negative = inhibition"
11,O=C(O)CNC(=O)/C(=C/c1cccc([N+](=O)[O-])c1)NC(=O)c1ccco1,inconclusive: -38.7%
9,O=[N+]([O-])c1ccc(Oc2cccc(F)c2)c2ccncc12,inconclusive: -39.1%
17,O=C1C2C(C(=O)N1/N=C/c1cc([N+](=O)[O-])ccc1O)C1C=CC2C12CC2 (stereo not drawn),inactive: 6.84%

# (more compounds)

row,SMILES,"activity change (PNC), negative = inhibition"
1,Cc1cc(C)nc(NC(=O)c2cccc([N+](=O)[O-])c2C)n1,inactive: 3.52%
2,Cc1cc2ccccc2nc1Br,inconclusive: -53.1%
3,COCCNS(=O)(=O)c1ccc(-c2ccc(C)cc2)cc1,inactive: -18.1%
4,Cc1c(C(=O)NCc2ccc3c(c2)OCO3)sc2nc(-c3ccc(F)cc3)cn12,inactive: -13%
5,Cc1ccc(CNC(=O)COc2ccc(C)nc2[N+](=O)[O-])cc1,inactive: -19.8%
6,Cc1c(C(=O)NCc2cccs2)oc2ccc(S(=O)(=O)N3CCOCC3)cc12,inconclusive: -40%
7,O=C(Nc1cccc(S(=O)(=O)N2CCCCCC2)c1)c1ccc2ccccc2n1,inconclusive: -35.6%
8,Brc1cccc(-c2nnco2)c1,inconclusive: -42.3%
9,CCOC(=O)N1CCC(=C(C#N)C(=O)Nc2cc(OC)ccc2OC)CC1,inconclusive: -41.5%
10,CCCn1nc(C(=O)OCC(=O)Nc2ncc(Cl)c(C)c2Cl)c2ccccc2c1=O,active: -113%
11,C=CCN1CCN(C(CC(C)C)c2nnnn2CCOC)CC1 (stereo not drawn),inconclusive: -74.8%
12,COc1ccc(-c2nn(-c3ccccc3)cc2/C=N/NC(N)=S)cc1OC,active: -112%
13,O=C(Cc1cccs1)Nc1nnc(SCC(=O)N2CCCCC2)s1,inconclusive: -42%
14,O=C1c2cccc3c([N+](=O)[O-])ccc(c23)C(=O)N1c1nccs1,inactive: -10.9%
15,CC1C(=NO)C(C)C(c2ccc(N(C)C)cc2)NC1c1ccc(N(C)C)cc1 (stereo not drawn),inactive: 37.3%
16,Cc1nnc(SCCN2CCOCC2)n1C,inactive: -10.5%
17,CN(C)S(=O)(=O)c1ccc(NC(=O)c2cccnc2)cc1,inactive: 49.8%
18,O=C(CNC(=O)c1ccccc1)Nc1cccc(C(F)(F)F)c1,inactive: -23.8%
